Measured values taken from PubChem BioAssay AID504444 (National Center for Advancing Translational Sciences (NCATS), 2011).
About 7,500 (2.1%) of roughly 360,000 compounds were called active. The shares of active, inactive and inconclusive entries below differ from those in the screen. Calls come from the whole dose curve; as a rule, active = well fitted inhibition curve with a large enough effect; inconclusive = small, poorly fitted or top-dose-only effect, or effect the other way; inactive = flat fitted curve, though single readings scatter. Potencies beside an inconclusive call are fits to weak or partial responses and may not hold up.

Test: Nrf2 qHTS screen for inhibitors; note: nearly all actives have a fitted effect of over 60% in size
Settings: A549 ARE-Fluc reporter, luciferase luminescence, 18-24 h; series mostly up to 46 µM
Method in brief: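 Nrf2 function is reported as luminescence of an ARE-controlled luciferase in A549 cells. Compounds were tested at several concentrations, and a CellTiter-Fluor read on the same wells flagged cytotoxicity.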
Potency is the fitted concentration of half-maximal effect.

| SMILES | Potency |
| --- | --- |
| Cc1cc2oc(=O)c(CC(=O)NCCc3ccccc3)c(C)c2c2occ(C(C)(C)C)c12 | inconclusive: 29.1 µM [falling, single point] |
| CN1CC(c2ccc(Cl)c(Cl)c2)[C@@]2(COc3ccccc3C2=O)[C@@]12C(=O)Nc1ccccc12 (some centres undefined) | active: 18.4 µM |
| COc1ccc(-c2nc3nc(C)cc(C)n3n2)cc1 | inconclusive: 32.6 µM [activator, single point] |
| CN(C)c1nc(-c2cccs2)cc(C(F)(F)F)c1C#N | inactive |
| Cc1cc(C(=O)O)c2c(=O)n(C)c(=O)n(C)c2n1 | inactive |
| CN(C)c1ccc(/C=C/c2nc3ccccc3c(=O)[nH]2)cc1 | inactive |
| COc1cc(OC)c2c(-c3ccccc3)cc(=O)oc2c1C(CCN1CCCCC1)c1ccc(N(C)C)cc1 (centres undefined) | inactive |
| Cc1nc(Nc2cccc(O)c2)c2c3c(sc2n1)CCC3 | inconclusive: 13 µM [falling, partial curve] |
| O=C(Nc1ccc(Br)cn1)c1coc(=O)c(Br)c1 | inconclusive: 29.1 µM [activator, single point] |
| O=C(CCNC(=O)c1ccc(Br)cc1)Nc1cccc(S(=O)(=O)N2CCCCCC2)c1 | inconclusive: 20.6 µM [falling, single point] |
| COc1ccc(/C=N/NC(=O)c2ccccc2OC)cc1COc1ccccc1[N+](=O)[O-] | inconclusive: 29.1 µM [falling, single point] |
| C=CCOc1ccc(/C=C/C(=O)OCC(=O)N2CCC(c3ccccc3)=N2)cc1 | active: 20.6 µM |
| COc1ccc(CN2CCC(C(=O)Nc3ccc(Oc4ccccc4)nc3)CC2)cc1F | inconclusive: 29.1 µM [falling, single point] |
| CCN(C(=O)CCc1nc(-c2ccc(C)cc2)no1)c1cc(C)ccc1C | inconclusive: 6.51 µM [falling, partial curve] |
| CCCCN(C)CCCNC(=O)c1ccc2nc(N3CCCCC3)sc2c1 | inconclusive: 1.84 µM [activator, full curve] |
| O=C(Nc1ccccc1)N1CCc2ccccc2C1 | inconclusive: 5.17 µM [activator, full curve] |
| c1ccc(CSc2ncnc3c2cnn3Cc2ccccc2)cc1 | inconclusive: 32.6 µM [falling, single point] |
| Cc1cccc(NC(=O)C2CCCN(S(=O)(=O)c3cccc4nonc34)C2)c1C (centres undefined) | inactive |
| CC(C)Sc1nc2c(c(=O)n(C)c(=O)n2C)n1Cc1ccc(Cl)cc1 | inconclusive: 23.1 µM [falling, single point] |
| CC#CC(=O)N1CCC(n2nccc2NC(=O)c2ccc3c(c2)OCO3)CC1 | inconclusive: 10.3 µM [activator, partial curve] |
| O=C(CN1CCCC1)NCc1ccccc1 | inconclusive: 8.2 µM [falling, partial curve, poor fit] |
| CCN1CCC(N(Cc2ccc3c(c2)OCO3)C(=O)Nc2cc(Cl)ccc2C(=O)OC)CC1 | inactive |

| SMILES | Potency |
| --- | --- |
| COc1ccc(/C=C2\Sc3ccc(C(=O)N4CCCC4)cc3N(C)C2=O)cc1OC | inconclusive: 29.1 µM [falling, single point] |
| Cc1cc(C(=O)N2CCCC(N3CCN(c4ccc(F)cc4)CC3)C2)c(C)o1 (centres undefined) | inconclusive: 23.1 µM [falling, single point] |
| CS(=O)(=O)N(CC(=O)Nc1c(F)cccc1F)Cc1ccccc1 | inconclusive: 32.6 µM [falling, single point] |
| Clc1ccc2c(c1)C(N1CCNCC1)Cc1ccccc1S2 (centres undefined) | inactive |
| Cc1ccc2oc(-c3ccco3)nc2c1 | inconclusive: 18.4 µM [activator, partial curve] |
| CCS(=O)(=O)c1ccc2c(c1)N(S(C)(=O)=O)CC(C(=O)NN)O2 (centres undefined) | inconclusive: 18.4 µM [activator, single point] |
| Cc1cccc(S(=O)(=O)Nc2cccc(-c3cn4ccsc4n3)c2)c1 | inconclusive: 25.9 µM [falling, single point] |
| Cc1ccccc1NS(=O)(=O)c1ccc(C(=O)NCC(c2ccco2)N2CCCCC2)cc1 (centres undefined) | inconclusive: 20.6 µM [falling, partial curve] |
| C/C(=N\NC(=O)C(N)=O)c1ccc(NC(=O)c2cccs2)cc1 | inconclusive: 6.51 µM [activator, partial curve] |
| Cc1cccc(OCC(=O)N2CCC(N3CCOCC3)CC2)c1 | inactive |
| CCc1ccc(OCC(=O)N(Cc2cccs2)c2ccc(Cl)cc2)cc1 | inactive |
| O=S(=O)(Nc1cc(Cl)ccc1-n1cncn1)c1ccccc1Cl | inconclusive: 32.6 µM [falling, single point] |
| NC(=O)C1CC(=O)N(c2ccc(OCC(=O)Nc3ccc(Cl)cc3)cc2)C1 (centres undefined) | inconclusive: 29.1 µM [falling, single point] |
| COc1ccc(C)cc1NC(=O)CN1C(=O)COc2ccc(C)cc21 | inconclusive: 29.1 µM [falling, single point] |
| COc1ccc(CCNC(=O)C2CCN(S(=O)(=O)c3ccc(SC)cc3)CC2)cc1 | inconclusive: 29.1 µM [falling, single point] |
| COc1ccc(Cl)cc1NS(=O)(=O)c1cccc(C(=O)NC2CCN(Cc3ccccc3)CC2)c1 | inconclusive: 20.6 µM [falling, single point] |
| CCN(Cc1ccccc1)Cc1c(O)ccc2c(=O)c(-c3ccccc3OC)c(C(F)(F)F)oc12 | inconclusive: 18.4 µM [falling, partial curve, poor fit] |
| COc1ccc(NC(=O)c2sc3nc(N4CCCC4)c4c(c3c2N)CC(C)(C)OC4)cc1 | inconclusive: 5.8 µM [falling, single point] |
| CNC(=S)N/N=C1\C(=O)c2cccc3cccc1c23 | inactive |
| COc1cc(C2Nc3ccccc3C(=O)N2Cc2ccccc2)ccc1OCc1ccc(NC(C)=O)cc1 (centres undefined) | inactive |
| Cc1cccc(OCCSc2nc3ccccc3n2CC(=O)N2CCCCC2)c1C | inconclusive: 18.4 µM [falling, single point] |
| N#CC1=C(N)N(c2ccccc2)C(c2ccco2)C1(C#N)C#N (centres undefined) | inactive |

Entries above containing a cyano group, in the order listed:

| SMILES | Potency |
| --- | --- |
| CN(C)c1nc(-c2cccs2)cc(C(F)(F)F)c1C#N | inactive |
| N#CC1=C(N)N(c2ccccc2)C(c2ccco2)C1(C#N)C#N (centres undefined) | inactive |
